These are yes or no findings as the source states them, for the method shown. Binding seen in cells or lysates may run through a third protein. These calls come from enrichment with a bait or labelling near it, and not all partners need be listed.
Molecular target: His-tagged β-clamp (UniProt P0A988)
Test: affinity purification with mass spectrometry; His-tag purification on TALON metal affinity resin from extracts of E. coli BL21 overexpressing His-tagged β-clamp (control: His-tag only); 1 h at 4°C, 50 mM NaP pH 8, 300 mM NaCl, washes with 10 mM imidazole; on-resin trypsin digest, LC-MS/MS; three biological replicas

Amino acid sequences for entries named in this document (tags omitted).
UniProt P0A988: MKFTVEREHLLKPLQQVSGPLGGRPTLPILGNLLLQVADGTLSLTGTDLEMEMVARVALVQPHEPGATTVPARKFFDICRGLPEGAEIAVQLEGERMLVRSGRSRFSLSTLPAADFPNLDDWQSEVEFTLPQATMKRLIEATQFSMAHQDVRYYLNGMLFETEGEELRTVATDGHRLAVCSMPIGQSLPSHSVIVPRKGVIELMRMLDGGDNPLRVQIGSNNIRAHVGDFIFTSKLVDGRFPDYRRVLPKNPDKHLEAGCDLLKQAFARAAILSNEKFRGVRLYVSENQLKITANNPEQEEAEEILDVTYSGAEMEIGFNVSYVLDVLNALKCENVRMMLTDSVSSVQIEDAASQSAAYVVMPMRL
UniProt P0A9A6: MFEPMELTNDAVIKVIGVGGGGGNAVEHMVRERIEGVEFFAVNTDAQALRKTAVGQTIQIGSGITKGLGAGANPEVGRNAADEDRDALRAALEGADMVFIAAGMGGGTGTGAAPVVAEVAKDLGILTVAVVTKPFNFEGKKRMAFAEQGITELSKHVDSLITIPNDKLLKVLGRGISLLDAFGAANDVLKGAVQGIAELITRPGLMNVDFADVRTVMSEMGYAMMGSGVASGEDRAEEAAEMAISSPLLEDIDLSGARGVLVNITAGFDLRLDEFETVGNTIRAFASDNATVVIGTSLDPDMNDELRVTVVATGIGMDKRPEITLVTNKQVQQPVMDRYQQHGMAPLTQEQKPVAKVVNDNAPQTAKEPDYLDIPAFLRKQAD

- binding: binds
Substance: FtsZ (from UniProt P0A9A6 1-383)

From paper PMC10564113
